PubChem BioAssay AID1259254, NCATS, 2017
The whole screen tested about 59,000 reagents; this is a part drawn at random. About 1,550 of all reagents (2.6%) were called active. 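G2 share is only a proxy for re-replication; each gene was hit by three separate siRNAs, and active genes were retested.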 The raw values are shown without normalisation. The numbers tell different reagents against one gene apart. Not given: the amount of reagent.

Purpose: 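Gene knock-downs that lead to re-replication, shown by excess G2 DNA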 (primary screen)
System: human HCT116 colorectal cancer cells
Reagent: single siRNA against human genes
Time to read-out: 3 days
Detection: 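Nuclei stained with Hoechst and imaged; cell-cycle phase assigned by DNA content; G2 share scaled per plate, non-targeting siRNA 0%, GMNN siRNA 100%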
Direction: G2 robust z-score and G2 cells, % of GMNN control: higher = more G2 cells, more excess DNA replication; raw share of cells in G2: higher = larger share of cells with G2 DNA content
Call rule: 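Active siRNAs have a G2 robust z of 5 or more median absolute deviations over the median, which in these data means about 38% or higher of GMNN control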

gene knocked down	reagent	G2 robust z-score	G2 cells, % of GMNN control	raw share of cells in G2 (%)	Call
RELB (RELB proto-oncogene, NF-kB subunit)	1	1.27	11.9	8.18	inactive
RELB (RELB proto-oncogene, NF-kB subunit)	2	0.474	6.3	7.8	inactive
RELB (RELB proto-oncogene, NF-kB subunit)	3	-0.572	-1.06	2.72	inactive
KCNMB1	1	3.25	25.8	14.7	inactive
KCNMB1	2	2.13	18	10.9	inactive
KCNMB1	3	0.0658	3.43	5.71	inactive
MRGPRX1 (MAS related GPR family member X1)	1	2.13	18	8.78	inactive
MRGPRX1 (MAS related GPR family member X1)	2	0.957	9.7	9.31	inactive
MRGPRX1 (MAS related GPR family member X1)	3	-0.132	2.04	5.23	inactive
TNFSF18 (TNF superfamily member 18)	1	-0.88	-3.22	3.7	inactive
TNFSF18 (TNF superfamily member 18)	2	3.54	27.9	15	inactive
TNFSF18 (TNF superfamily member 18)	3	-0.532	-0.779	3.07	inactive
IFT122P3 (IFT122 pseudogene 3)	1	-0.777	-2.5	2.24	inactive
IFT122P3 (IFT122 pseudogene 3)	2	2.24	18.7	10.1	inactive
IFT122P3 (IFT122 pseudogene 3)	3	-0.682	-1.83	2.23	inactive

Ordered by “G2 cells, % of GMNN control” (descending): some entries from above.
gene knocked down	reagent	G2 robust z-score	G2 cells, % of GMNN control	raw share of cells in G2 (%)	Call
TNFSF18 (TNF superfamily member 18)	2	3.54	27.9	15	inactive
MRGPRX1 (MAS related GPR family member X1)	3	-0.132	2.04	5.23	inactive
TNFSF18 (TNF superfamily member 18)	1	-0.88	-3.22	3.7	inactive

The listing continues:
gene knocked down	reagent	G2 robust z-score	G2 cells, % of GMNN control	raw share of cells in G2 (%)	Call
SLC16A2	1	-1.03	-4.28	4.24	inactive
SLC16A2	2	-1.64	-8.58	1.61	inactive
SLC16A2	3	-0.651	-1.61	3.42	inactive
PLB1 (phospholipase B1)	1	-1.19	-5.41	2.72	inactive
PLB1 (phospholipase B1)	2	-0.337	0.598	4.95	inactive
PLB1 (phospholipase B1)	3	1.56	13.9	12.6	inactive
NAP1L4 (nucleosome assembly protein 1 like 4)	1	-0.0203	2.82	5.71	inactive
NAP1L4 (nucleosome assembly protein 1 like 4)	2	-1.23	-5.67	2.6	inactive
NAP1L4 (nucleosome assembly protein 1 like 4)	3	-0.811	-2.74	2.67	inactive
DCAF1 (DDB1 and CUL4 associated factor 1)	1	0.807	8.65	9.24	inactive
DCAF1 (DDB1 and CUL4 associated factor 1)	2	0.855	8.98	7.69	inactive
DCAF1 (DDB1 and CUL4 associated factor 1)	3	1.16	11.1	7.46	inactive
KRTAP21-2 (keratin associated protein 21-2)	1	-1.09	-4.68	2.38	inactive
KRTAP21-2 (keratin associated protein 21-2)	2	1.33	12.4	8.67	inactive
KRTAP21-2 (keratin associated protein 21-2)	3	0.177	4.22	5.89	inactive
